Measured values as given in patent US20100047226A1.
No constants are given. Whether binding was seen depends on the method and setting. Some entries that bind do so weakly or less than the wild type.

Chains of the proteins cited; added tags and fusions are not shown.
UniProt P31750: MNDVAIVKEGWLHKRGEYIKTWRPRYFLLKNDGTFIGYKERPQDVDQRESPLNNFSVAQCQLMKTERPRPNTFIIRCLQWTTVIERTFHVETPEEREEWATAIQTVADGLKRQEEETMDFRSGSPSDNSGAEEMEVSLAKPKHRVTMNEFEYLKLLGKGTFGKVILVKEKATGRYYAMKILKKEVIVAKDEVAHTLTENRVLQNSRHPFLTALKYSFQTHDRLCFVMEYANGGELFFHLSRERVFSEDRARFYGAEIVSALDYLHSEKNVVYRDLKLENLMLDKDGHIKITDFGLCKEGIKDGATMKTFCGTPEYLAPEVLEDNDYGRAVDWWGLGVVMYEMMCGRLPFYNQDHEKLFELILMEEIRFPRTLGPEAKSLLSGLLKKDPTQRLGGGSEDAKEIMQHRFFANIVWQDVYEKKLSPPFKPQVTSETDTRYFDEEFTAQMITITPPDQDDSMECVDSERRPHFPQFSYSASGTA

Target: AKT (Protein Kinase B), endogenous, mouse brain lysate and N2a cells (mouse) (UniProt P31750)
Assay: fluorescence co-localisation of N-terminally dye-labeled ZaTa with AKT in cells

B1: ZaTa peptide labeled with a red fluorescent dye at its N-terminus (peptide)
peptide: AKRVKGRTWTLCGTPEY
modifications: red fluorescent dye at the N-terminus
**Q.** For B1, which binding is on record?
**A.** The binding was “binds”.
